# In PubChem BioAssay AID1487 (National Center for Advancing Translational Sciences (NCATS), 2009):
# Some of the results follow. Shown are side measurements of this screen, not its main read-out; they come without a call. The list favours compounds with an active or inconclusive main result. The note in brackets gives the kind of curve behind each potency; many fits are weak.
# Experiment: qHTS Assay for Modulators of Lamin A Splicing
# Conditions: HeLa LMNA splicing GFP/RFP minigene ratio, 48 h
# How it was run: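 Read-out is the ratio of GFP to DsRed2 object intensity, acquired by 488 nm laser-scanning cytometry on HeLa lamin A-EGFP minigene reporter cells. Compound incubation 48 hrs at 37 °C in Opti-MEM with 2% FBS; DMSO 0.5% final.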
# [1] = measured here: GFP splicing reporter channel
# [2] = measured here: RFP viability control channel
SMILES,AC50 [1],AC50 [2]
CC(=O)c1cn(CC(=O)Nc2cccc(C)c2C)c2ccccc12,"1.41 µM [rising, single point]",
Cc1ccccc1C(=O)N1CCN(c2ccc(NC(=O)c3ccco3)cc2Cl)CC1,,"10 µM [rising, partial curve]"
CCOC(=O)C1=C(O)/C(=C\c2sccc2C)N=C1C,"2 µM [falling, partial curve, poor fit]",
CC(C)C(NC(=O)OCc1ccccc1)C(=O)OCC(=O)NC1CC1 (stereo unspecified),"0.0398 µM [falling, full curve, poor fit]","0.0316 µM [falling, full curve, poor fit]"
Cc1cccc2cc(/C=N/NC(=O)CN3CCOCC3)c(Cl)nc12,,"20 µM [rising, single point]"
Cc1ccc(-n2c(C)cc(C(=O)OCC(=O)N(CC(C)C)C3CCS(=O)(=O)C3)c2C)cc1 (stereo unspecified),"3.55 µM [rising, full curve]","3.55 µM [rising, single point]"
COCCn1c(=O)cnc2cnc(Nc3cccc(OC)c3)nc21,"12.6 µM [falling, partial curve]","20 µM [falling, partial curve]"
Cc1nn(-c2cccc(C(F)(F)F)c2)c(Cl)c1/C=N/n1cnnc1,"7.08 µM [rising, partial curve, poor fit]","12.6 µM [rising, partial curve, poor fit]"
COC(=O)[C@@H](NC(=O)N1CCc2nc(-c3ccc(OC)cc3C)c3c(c2C1)CO[C@@H](c1ccccc1)C3)C(C)C,,"0.398 µM [rising, partial curve]"
NC(=O)NC(=O)CC1S/C(=N/N=C2\CSC(=O)N2)NC1=O (stereo unspecified),,"0.0501 µM [rising, single point]"
COc1cc(C(=O)NNC(=O)c2cc(C)[nH]n2)cc(OC)c1OC,"0.00355 µM [falling, full curve, poor fit]","0.00316 µM [falling, full curve, poor fit]"
C/C(=N\NC(=S)NC(C)C)c1cccc([N+](=O)[O-])c1,"15.8 µM [rising, single point]","15.8 µM [rising, single point]"
CCOC(=O)c1c(-c2ccccc2)csc1NC(=O)CSc1nncs1,,"20 µM [rising, partial curve]"
CCC(=O)Nc1cccc(NC(=S)NC(=O)c2ccc(Cl)cc2)c1,"20 µM [rising, single point]","12.6 µM [rising, partial curve, poor fit]"

# Taken from above.
# Under AC50 [1], CC(=O)c1cn(CC(=O)Nc2cccc(C)c2C)c2ccccc12 is entered as 1.41 µM [rising, single point]
# Under AC50 [2], Cc1ccccc1C(=O)N1CCN(c2ccc(NC(=O)c3ccco3)cc2Cl)CC1 is entered as 10 µM [rising, partial curve]
